Measured values: paper PMC6471618, “Comparison of the Sulfonamide Inhibition Profiles of the α-Carbonic Anhydrase Isoforms (SpiCA1, SpiCA2 and SpiCA3) Encoded by the Genome of the Scleractinian Coral Stylophora pistillata” (Marine Drugs, 2019)

The chains behind the UniProt entries cited, without tags or fusion partners.
UniProt A0A1B0Y357, entry or part of it: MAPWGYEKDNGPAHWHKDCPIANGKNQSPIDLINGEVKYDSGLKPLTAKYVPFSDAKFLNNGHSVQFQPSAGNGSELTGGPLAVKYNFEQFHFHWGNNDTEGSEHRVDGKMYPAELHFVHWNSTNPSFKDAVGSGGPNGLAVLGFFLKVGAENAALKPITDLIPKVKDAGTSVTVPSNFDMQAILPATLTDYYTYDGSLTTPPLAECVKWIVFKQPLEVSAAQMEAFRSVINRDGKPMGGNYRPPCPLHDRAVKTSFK

Target: SpiCA3 (Stylophora pistillata, UniProt A0A1B0Y357)
Format: biochemical
Conditions: recombinant coral isoform, stopped-flow CO2 hydration, 20 mM TRIS pH 8.3, 15 min preincubation; errors 5–10%, 3 assays
Procedure: An Applied Photophysics stopped-flow instrument (Leatherhead, Surrey (UK)) has been used for assaying the CA catalyzed CO2 hydration activity. […] The un-catalyzed rates were determined in the same manner and subtracted from the total observed rates. […] The inhibition constants were obtained by non-linear least-squares methods using PRISM 3 and the Cheng-Prusoff equation, as reported earlier, and represent the mean from at least three different determinations. All CA isoforms were recombinant ones obtained in-house. All salts/small molecules were of the highest purity available, from Sigma-Aldrich (Milan, Italy).

Compound: CCN[C@H]1C[C@H](C)S(=O)(=O)c2sc(S(N)(=O)=O)cc21 [DZA, Dorzolamide]
- Ki: 354 nM
